Source: article PMC8234060
These are yes or no findings as the source states them, for the method shown. In cells and extracts the contact can be indirect. Some binding calls cover weakened binding; strength is not graded here.

Experiments:
[1] = molecular target: T1, Sigma 1 receptor (mouse (endogenous in 661 W)), O55242; assay: co-IP; 661 W cell lysate (500 ug total protein, Pierce IP lysis buffer) incubated with rabbit polyclonal anti-Sig1R overnight at 4 C; immune complexes precipitated by protein A/G agarose beads; immunoblot with anti-NRF2; conditions: remark: other sources report otherwise
T1 chain: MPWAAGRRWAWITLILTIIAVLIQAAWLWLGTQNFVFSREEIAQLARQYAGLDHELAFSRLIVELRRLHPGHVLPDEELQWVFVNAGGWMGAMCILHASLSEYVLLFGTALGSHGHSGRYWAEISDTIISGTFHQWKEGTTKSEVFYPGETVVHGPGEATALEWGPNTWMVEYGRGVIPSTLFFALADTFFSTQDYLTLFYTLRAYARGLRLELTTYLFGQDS

[2] = molecular target: T1, Sigma 1 receptor (mouse (endogenous in …)); assay: proximity ligation; Duolink PLA In Situ Orange kit on fixed, permeabilised 661 W cells, with or without (+)-PTZ (20 uM) for 3 h or 24 h; rabbit anti-Sig1R and mouse anti-NRF2; probes join at <40 nm; conditions: remark: other sources report otherwise

binding [1]: binds
binding [2]: binds
B1: nuclear factor erythroid 2-related factor 2, Q60795 1-597 (protein)
chain: MMDLELPPPGLQSQQDMDLIDILWRQDIDLGVSREVFDFSQRQKDYELEKQKKLEKERQEQLQKEQEKAFFAQFQLDEETGEFLPIQPAQHIQTDTSGSASYSQVAHIPKQDALYFEDCMQLLAETFPFVDDHESLALDIPSHAESSVFTAPHQAQSLNSSLEAAMTDLSSIEQDMEQVWQELFSIPELQCLNTENKQLADTTAVPSPEATLTEMDSNYHFYSSISSLEKEVGNCGPHFLHGFEDSFSSILSTDDASQLTSLDSNPTLNTDFGDEFYSAFIAEPSDGGSMPSSAAISQSLSELLDGTIEGCDLSLCKAFNPKHAEGTMEFNDSDSGISLNTSPSRASPEHSVESSIYGDPPPGFSDSEMEELDSAPGSVKQNGPKAQPAHSPGDTVQPLSPAQGHSAPMRESQCENTTKKEVPVSPGHQKAPFTKDKHSSRLEAHLTRDELRAKALHIPFPVEKIINLPVDDFNEMMSKEQFNEAQLALIRDIRRRGKNKVAAQNCRKRKLENIVELEQDLGHLKDEREKLLREKGENDRNLHLLKRRLSTLYLEVFSMLRDEDGKPYSPSEYSLQQTRDGNVFLVPKSKKPDTKKN
